The other results are listed elsewhere or left out. The list holds hits alone, and they repeat only in part.

Chains of the proteins cited; added tags and fusions are not shown.
ANAPC1, Q9H1A4, UniProt Q9H1A4, whole entry: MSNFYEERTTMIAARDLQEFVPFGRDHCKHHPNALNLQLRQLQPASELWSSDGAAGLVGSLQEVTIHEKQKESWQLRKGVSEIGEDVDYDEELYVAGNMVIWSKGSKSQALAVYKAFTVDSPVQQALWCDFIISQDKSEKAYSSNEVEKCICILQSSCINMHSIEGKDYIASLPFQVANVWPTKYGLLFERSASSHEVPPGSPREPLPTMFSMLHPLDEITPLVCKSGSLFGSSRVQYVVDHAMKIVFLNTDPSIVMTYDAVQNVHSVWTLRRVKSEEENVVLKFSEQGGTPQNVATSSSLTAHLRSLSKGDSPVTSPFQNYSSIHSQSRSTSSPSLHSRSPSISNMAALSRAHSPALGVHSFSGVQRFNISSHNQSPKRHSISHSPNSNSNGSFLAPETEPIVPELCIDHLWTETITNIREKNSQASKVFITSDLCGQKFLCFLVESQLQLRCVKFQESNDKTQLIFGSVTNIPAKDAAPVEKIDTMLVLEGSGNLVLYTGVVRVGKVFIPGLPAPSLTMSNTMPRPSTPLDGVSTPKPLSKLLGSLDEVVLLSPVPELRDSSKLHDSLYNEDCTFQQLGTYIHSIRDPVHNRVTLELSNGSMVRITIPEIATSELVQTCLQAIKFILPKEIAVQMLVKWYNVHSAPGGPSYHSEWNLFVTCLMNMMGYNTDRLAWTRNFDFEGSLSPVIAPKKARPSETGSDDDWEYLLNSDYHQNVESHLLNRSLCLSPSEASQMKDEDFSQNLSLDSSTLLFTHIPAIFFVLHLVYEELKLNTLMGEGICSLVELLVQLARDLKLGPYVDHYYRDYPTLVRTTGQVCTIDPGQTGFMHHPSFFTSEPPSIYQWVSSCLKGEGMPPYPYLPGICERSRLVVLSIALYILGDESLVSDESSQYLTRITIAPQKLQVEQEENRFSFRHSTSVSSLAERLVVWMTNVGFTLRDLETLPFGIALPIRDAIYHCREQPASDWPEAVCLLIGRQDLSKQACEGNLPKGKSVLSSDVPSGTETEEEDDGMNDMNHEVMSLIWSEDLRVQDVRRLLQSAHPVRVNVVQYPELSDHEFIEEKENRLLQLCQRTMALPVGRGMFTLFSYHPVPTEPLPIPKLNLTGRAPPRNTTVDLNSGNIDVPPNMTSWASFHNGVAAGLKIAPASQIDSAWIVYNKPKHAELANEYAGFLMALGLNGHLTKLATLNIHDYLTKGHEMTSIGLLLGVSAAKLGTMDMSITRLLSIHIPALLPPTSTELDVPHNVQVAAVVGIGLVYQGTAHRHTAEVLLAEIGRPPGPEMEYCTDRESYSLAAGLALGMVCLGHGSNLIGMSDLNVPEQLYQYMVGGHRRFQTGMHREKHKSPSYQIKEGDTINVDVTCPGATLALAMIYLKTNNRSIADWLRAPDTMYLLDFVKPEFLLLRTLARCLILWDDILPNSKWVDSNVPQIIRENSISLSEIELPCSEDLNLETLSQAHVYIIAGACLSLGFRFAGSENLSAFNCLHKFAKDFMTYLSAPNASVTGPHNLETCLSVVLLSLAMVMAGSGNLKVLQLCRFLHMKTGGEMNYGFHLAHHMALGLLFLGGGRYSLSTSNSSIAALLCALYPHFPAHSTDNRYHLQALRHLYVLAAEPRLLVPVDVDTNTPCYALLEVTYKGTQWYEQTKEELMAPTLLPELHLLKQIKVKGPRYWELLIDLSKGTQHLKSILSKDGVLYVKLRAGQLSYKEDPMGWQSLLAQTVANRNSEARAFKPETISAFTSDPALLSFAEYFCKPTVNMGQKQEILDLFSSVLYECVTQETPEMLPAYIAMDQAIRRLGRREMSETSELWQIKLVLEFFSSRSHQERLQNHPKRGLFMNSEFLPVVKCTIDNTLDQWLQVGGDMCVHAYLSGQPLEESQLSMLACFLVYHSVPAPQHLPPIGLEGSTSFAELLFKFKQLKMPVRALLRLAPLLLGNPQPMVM
ANAPC4, Q9UJX5, UniProt Q9UJX5, whole entry: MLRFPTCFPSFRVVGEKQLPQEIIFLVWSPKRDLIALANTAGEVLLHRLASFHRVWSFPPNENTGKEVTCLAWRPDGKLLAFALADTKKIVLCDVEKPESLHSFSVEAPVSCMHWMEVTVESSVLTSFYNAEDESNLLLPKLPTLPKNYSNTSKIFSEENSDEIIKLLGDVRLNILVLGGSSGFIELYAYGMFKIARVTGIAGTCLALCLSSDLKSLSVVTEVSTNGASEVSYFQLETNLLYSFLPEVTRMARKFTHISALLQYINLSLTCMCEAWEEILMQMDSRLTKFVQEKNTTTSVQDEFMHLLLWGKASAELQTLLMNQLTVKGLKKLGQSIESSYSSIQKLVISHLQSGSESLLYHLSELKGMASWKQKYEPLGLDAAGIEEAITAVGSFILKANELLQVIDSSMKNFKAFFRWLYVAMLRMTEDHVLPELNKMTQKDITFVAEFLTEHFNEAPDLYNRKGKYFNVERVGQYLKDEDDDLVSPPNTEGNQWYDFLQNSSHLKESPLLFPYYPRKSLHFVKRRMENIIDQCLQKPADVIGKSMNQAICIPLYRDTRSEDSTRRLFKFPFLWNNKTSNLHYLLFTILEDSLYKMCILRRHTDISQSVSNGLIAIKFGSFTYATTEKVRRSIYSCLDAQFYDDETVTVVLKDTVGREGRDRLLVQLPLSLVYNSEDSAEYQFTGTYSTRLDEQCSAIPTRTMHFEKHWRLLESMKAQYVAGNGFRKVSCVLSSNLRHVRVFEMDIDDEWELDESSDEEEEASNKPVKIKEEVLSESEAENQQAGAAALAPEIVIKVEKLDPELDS
LIG1, P18858, UniProt P18858, whole entry: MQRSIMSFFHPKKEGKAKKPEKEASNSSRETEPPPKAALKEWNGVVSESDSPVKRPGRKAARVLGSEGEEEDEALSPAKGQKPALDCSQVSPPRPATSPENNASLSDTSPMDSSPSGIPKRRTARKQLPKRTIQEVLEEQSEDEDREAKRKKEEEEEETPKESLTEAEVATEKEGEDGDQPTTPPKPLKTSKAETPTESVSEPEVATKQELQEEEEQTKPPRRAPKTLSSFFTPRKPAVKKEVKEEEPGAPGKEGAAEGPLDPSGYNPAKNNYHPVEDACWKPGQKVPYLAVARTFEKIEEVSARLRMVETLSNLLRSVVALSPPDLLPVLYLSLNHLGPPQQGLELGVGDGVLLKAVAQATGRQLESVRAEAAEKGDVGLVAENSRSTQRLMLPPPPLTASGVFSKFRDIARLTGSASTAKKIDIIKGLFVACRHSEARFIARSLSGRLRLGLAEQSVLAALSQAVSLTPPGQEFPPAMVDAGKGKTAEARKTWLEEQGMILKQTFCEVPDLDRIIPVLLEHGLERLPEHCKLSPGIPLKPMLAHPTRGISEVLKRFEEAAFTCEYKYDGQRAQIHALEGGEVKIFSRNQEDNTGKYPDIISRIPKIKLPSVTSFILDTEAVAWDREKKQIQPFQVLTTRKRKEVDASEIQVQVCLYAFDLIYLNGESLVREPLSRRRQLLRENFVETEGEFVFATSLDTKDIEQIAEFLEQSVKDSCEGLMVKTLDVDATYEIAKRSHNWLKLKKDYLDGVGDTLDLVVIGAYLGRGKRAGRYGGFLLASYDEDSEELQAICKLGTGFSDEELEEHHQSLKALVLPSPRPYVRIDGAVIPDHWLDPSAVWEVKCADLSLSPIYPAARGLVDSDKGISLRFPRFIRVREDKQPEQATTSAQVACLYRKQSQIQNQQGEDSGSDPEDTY
CFDP1, Q9UEE9, UniProt Q9UEE9, whole entry: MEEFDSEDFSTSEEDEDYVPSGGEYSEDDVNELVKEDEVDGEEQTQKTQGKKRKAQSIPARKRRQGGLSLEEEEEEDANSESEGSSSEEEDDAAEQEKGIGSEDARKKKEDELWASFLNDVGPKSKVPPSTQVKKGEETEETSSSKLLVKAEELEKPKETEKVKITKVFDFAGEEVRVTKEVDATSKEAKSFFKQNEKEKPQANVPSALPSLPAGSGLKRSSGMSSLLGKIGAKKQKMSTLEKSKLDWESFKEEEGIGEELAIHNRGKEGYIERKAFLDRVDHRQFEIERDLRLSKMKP
ANAPC5, Q9UJX4, UniProt Q9UJX4, whole entry: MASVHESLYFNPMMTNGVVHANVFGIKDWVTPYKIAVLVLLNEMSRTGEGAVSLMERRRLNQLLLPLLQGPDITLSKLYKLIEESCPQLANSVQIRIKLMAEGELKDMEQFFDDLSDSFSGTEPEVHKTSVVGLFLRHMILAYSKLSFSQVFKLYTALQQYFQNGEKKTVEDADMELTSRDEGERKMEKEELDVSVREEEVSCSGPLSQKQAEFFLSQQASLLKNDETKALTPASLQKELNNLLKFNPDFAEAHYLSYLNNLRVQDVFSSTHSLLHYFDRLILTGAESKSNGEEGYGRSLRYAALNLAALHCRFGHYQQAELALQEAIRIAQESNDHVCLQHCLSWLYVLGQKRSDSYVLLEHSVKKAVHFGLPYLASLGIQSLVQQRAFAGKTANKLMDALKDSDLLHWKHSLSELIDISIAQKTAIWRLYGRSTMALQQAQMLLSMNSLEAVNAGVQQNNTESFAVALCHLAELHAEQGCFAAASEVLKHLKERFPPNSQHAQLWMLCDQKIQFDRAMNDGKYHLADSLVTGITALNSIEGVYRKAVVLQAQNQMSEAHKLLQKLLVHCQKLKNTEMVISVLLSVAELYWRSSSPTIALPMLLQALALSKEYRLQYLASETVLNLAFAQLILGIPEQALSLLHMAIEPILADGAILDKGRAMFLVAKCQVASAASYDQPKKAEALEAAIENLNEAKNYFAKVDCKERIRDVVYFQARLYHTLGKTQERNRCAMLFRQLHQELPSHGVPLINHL
KPNA1, P52294, UniProt P52294, whole entry: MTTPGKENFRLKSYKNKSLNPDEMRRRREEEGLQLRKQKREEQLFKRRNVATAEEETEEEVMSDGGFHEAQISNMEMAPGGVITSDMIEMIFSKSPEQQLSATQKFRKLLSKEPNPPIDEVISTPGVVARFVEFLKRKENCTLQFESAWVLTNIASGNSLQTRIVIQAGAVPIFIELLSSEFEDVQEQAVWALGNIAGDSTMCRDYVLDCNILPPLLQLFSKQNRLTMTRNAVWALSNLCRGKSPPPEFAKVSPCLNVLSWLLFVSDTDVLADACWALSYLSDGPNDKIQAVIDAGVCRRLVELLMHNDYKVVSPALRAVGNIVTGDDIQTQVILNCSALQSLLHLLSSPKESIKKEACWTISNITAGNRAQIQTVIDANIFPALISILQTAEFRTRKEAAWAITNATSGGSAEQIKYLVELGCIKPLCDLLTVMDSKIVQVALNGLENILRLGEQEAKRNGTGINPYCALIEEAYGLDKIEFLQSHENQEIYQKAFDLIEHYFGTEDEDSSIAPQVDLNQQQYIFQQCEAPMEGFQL
SDC2, P34741, UniProt P34741, whole entry: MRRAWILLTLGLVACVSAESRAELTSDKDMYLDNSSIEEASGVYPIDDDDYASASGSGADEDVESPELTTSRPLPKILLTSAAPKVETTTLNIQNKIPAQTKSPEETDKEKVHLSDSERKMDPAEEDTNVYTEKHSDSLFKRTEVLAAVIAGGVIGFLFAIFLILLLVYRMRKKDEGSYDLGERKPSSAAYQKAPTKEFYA
SET, Q01105, UniProt Q01105, whole entry: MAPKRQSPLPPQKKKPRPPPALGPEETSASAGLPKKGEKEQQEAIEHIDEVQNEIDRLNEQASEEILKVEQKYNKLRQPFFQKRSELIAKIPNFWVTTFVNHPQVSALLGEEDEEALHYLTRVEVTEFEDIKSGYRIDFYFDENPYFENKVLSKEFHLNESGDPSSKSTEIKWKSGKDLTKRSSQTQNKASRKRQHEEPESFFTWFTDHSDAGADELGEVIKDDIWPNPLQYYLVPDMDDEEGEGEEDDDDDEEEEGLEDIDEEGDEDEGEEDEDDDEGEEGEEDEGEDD

Holding throughout (test): PRISMA enrichment of interactor (LFQ) in peptide spot vs all other peptide spots (log2 fold change); higher = stronger / more specific binding of the interactor to the peptide
One assay concerns the target ANAPC1, Q9H1A4. As for the experimental part: (§1)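 PRISMA: 221 full-length sORF-encoded peptides (3-15 aa), plus SOS1/GLUT1 control peptides, were spot-synthesized on cellulose membranes in triplicate. Membranes were incubated with HEK293T lysate, and bound proteins were identified by LC-MS/MS with LFQ. Enrichment is the log2 fold change versus all other peptide spots; only significant interactors are listed (cutoff c=6, x0=2.8).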

The next assay has as its target LAMB3, Q13751. As for the experimental part:
as §1

In a further assay the target is MAP2K7, O14733. As for the experimental part:
as §1

The target of the next assay is PDCD6IP, Q8WUM4. The method, then: as §1
A further assay has as its target PSMD4, P55036. As for the experimental part:
as §1

The target of a further assay is UQCRFS1, P47985. As for the experimental part: as §1
The target of the next assay is WDR6, Q9NNW5. The method, then: as §1
Another assay addresses ZC2HC1A, Q96GY0. The method, then: as §1
A further assay deals with ANAPC4, Q9UJX5. The method, then: as §1
The next assay has as its target CASC1, Q6TDU7. As for the experimental part: as §1
For a further assay, the target named is LIG1, P18858. The method, then: as §1
The target of a further assay is SNRNP40, Q96DI7. As for the experimental part:
as §1

In another assay the target is ANGEL1, Q9UNK9. As for the experimental part: as §1
Another assay concerns the target CFDP1, Q9UEE9. The method, then: as §1
The target of a further assay is HNRNPF, P52597. The method, then:
as §1

A further assay deals with MRPL51, Q4U2R6. As for the experimental part:
as §1

Another assay addresses PALLD, Q8WX93. The method, then: as §1
For the next assay, the target named is RBM10. As for the experimental part: as §1
A further assay has as its target RCN2, Q14257. The method, then: as §1
In the next assay the target is RRS1, Q15050. The method, then: as §1
The next assay has as its target SNX9, Q9Y5X1. As for the experimental part: as §1
The next assay addresses THOC3, Q96J01. As for the experimental part: as §1
For a further assay, the target named is TRIP4, Q15650. The method, then: as §1
Another assay concerns the target USP24, Q9UPU5. As for the experimental part: as §1
Another assay has as its target XRN1, Q8IZH2. The method, then:
as §1

Another assay concerns the target ANAPC5, Q9UJX4. As for the experimental part:
as §1

The target in the next assay is CAV1, Q03135. The method, then: as §1
The target of the next assay is ANKHD1, Q8IWZ3. The method, then: as §1
In the next assay the target is ANP32A, P39687. As for the experimental part:
as §1

A further assay deals with ANP32B, Q92688. As for the experimental part:
as §1

The next assay has as its target ANP32E, Q9BTT0. As for the experimental part: as §1
In another assay the target is C7orf50, Q9BRJ6. As for the experimental part: as §1
Another assay has as its target CDC73, Q6P1J9. The method, then: as §1
The next assay deals with CDCA7L, Q96GN5. The method, then:
as §1

The target in a further assay is CDK11B, P21127. The method, then:
as §1

In a further assay the target is CENPB, P07199. The method, then:
as §1

A further assay concerns the target CHD1, O14646. The method, then:
as §1

For the next assay, the target named is CTR9, Q6PD62. The method, then: as §1
The target of another assay is DDX21, Q9NR30. The method, then:
as §1

The target of the next assay is EBNA1BP2, Q99848. The method, then:
as §1

The target in another assay is EIF6, P56537. The method, then: as §1
The target of a further assay is ESF1, Q9H501. As for the experimental part: as §1
The target in a further assay is FLYWCH2, Q96CP2. The method, then:
as §1

A further assay addresses GPC4, O75487. As for the experimental part:
as §1

Another assay addresses GTPBP4, Q9BZE4. As for the experimental part:
as §1

The target of another assay is HTATSF1, O43719. The method, then:
as §1

The next assay has as its target IWS1, Q96ST2. The method, then:
as §1

The target in another assay is KPNA1, P52294. As for the experimental part:
as §1

For the next assay, the target named is KRI1, Q8N9T8. As for the experimental part:
as §1

In a further assay the target is LARP1, Q6PKG0. The method, then:
as §1

The next assay concerns the target LETMD1, Q6P1Q0. The method, then:
as §1

Another assay deals with MAGEB2, O15479. The method, then: as §1
A further assay concerns the target MOV10, Q9HCE1. The method, then: as §1
The next assay addresses NAT10, Q9H0A0. As for the experimental part: as §1
A further assay deals with NOC2L, Q9Y3T9. As for the experimental part:
as §1

A further assay addresses NOLC1, Q14978. The method, then:
as §1

In a further assay the target is NOP2, P46087. The method, then: as §1
The target in another assay is NTMT1, Q9BV86. As for the experimental part:
as §1

In another assay the target is PAF1, Q8N7H5. The method, then: as §1
In another assay the target is PELP1, Q8IZL8. As for the experimental part: as §1
The target in a further assay is PPM1G, O15355. As for the experimental part:
as §1

The target of another assay is RBM28, Q9NW13. As for the experimental part:
as §1

The target in another assay is RBM34, P42696. The method, then:
as §1

A further assay deals with RSL1D1, O76021. As for the experimental part: as §1
Another assay concerns the target SDC2, P34741. As for the experimental part: as §1
Another assay has as its target SET, Q01105. The method, then: as §1
The next assay addresses SH3GL1, Q99961. As for the experimental part: as §1
The target of a further assay is SMAP, O00193. As for the experimental part: as §1
For a further assay, the target named is SRP19, P09132. As for the experimental part: as §1
For the next assay, the target named is SRSF7, Q16629. As for the experimental part: as §1
Another assay addresses STAU1, O95793. As for the experimental part: as §1
The target in a further assay is UBTF, P17480. As for the experimental part:
as §1

The target of the next assay is ZC3H18, Q86VM9. The method, then:
as §1

In a further assay the target is ZRANB2, O95218. The method, then:
as §1

B1: BTN3A3 (peptide)
chain: MRDSTIIERMENY
For the molecule B1, the “PRISMA enrichment of interactor (log2)” value came out at 6.57 in the assay with ANAPC1, Q9H1A4; 6.65 in the assay with LAMB3, Q13751; 8.49 with MAP2K7, O14733; 7.45 with PDCD6IP, Q8WUM4; 7.09 with PSMD4, P55036; 5.53 with UQCRFS1, P47985. The “PRISMA enrichment of interactor (log2)” value with WDR6, Q9NNW5 was determined as 6.06; in the assay with ZC2HC1A, Q96GY0, 5.8.

B2: AP5M1 (peptide)
chain: MRNFDPCGPPFRK
As to B2, the “PRISMA enrichment of interactor (log2)” value in the assay with ANAPC4, Q9UJX5 is 4.27; with CASC1, Q6TDU7, 4.78; in the assay with LIG1, P18858, 4.04; in the assay with SNRNP40, Q96DI7 it was 4.58.

B3: SEC14L1 (peptide)
chain: MSAPRHPVSQARPF
With B3, the “PRISMA enrichment of interactor (log2)” value in the assay with ANGEL1, Q9UNK9 was 3.84; with CFDP1, Q9UEE9 it was 4.21; with HNRNPF, P52597, 5.07; with MRPL51, Q4U2R6, 4.52; in the assay with PALLD, Q8WX93, 4.31; with RBM10, 7.23. Besides, the “PRISMA enrichment of interactor (log2)” value with RCN2, Q14257 is 6.57; in the assay with RRS1, Q15050, 5.73; in the assay with SNX9, Q9Y5X1 it was 4.27; in the assay with THOC3, Q96J01 it was 4.32; with TRIP4, Q15650, 6.67; with USP24, Q9UPU5 it was 5.7. In the assay with XRN1, Q8IZH2, the “PRISMA enrichment of interactor (log2)” value was determined as 6.05.

B4: MAGI2-AS3 (peptide)
chain: MEQK
For the molecule B4, the “PRISMA enrichment of interactor (log2)” value in the assay with ANAPC5, Q9UJX4 was 5.5; in the assay with CAV1, Q03135, 4.38.

B5: CLDN12 (peptide)
chain: MKKTRHREVLNLAQV
On to B5, for which the “PRISMA enrichment of interactor (log2)” value with ANKHD1, Q8IWZ3 amounted to 4.37; with ANP32A, P39687, 7.72; with ANP32B, Q92688, 7.76; with ANP32E, Q9BTT0, 7.37; with C7orf50, Q9BRJ6 it was 4.3; with CDC73, Q6P1J9 it was 6.11. Moreover, the “PRISMA enrichment of interactor (log2)” value is 3.91 in the assay with CDCA7L, Q96GN5; 6.36 with CDK11B, P21127; 4.85 with CENPB, P07199; 5.15 with CHD1, O14646; 6.71 in the assay with CTR9, Q6PD62; 5.96 in the assay with DDX21, Q9NR30. Also, the “PRISMA enrichment of interactor (log2)” value in the assay with EBNA1BP2, Q99848 turned out to be 5.69; with EIF6, P56537, 5.94; with ESF1, Q9H501, 5.19; with FLYWCH2, Q96CP2, 4.06; with GPC4, O75487 it was 5.25; in the assay with GTPBP4, Q9BZE4, 6.03. Moreover, the “PRISMA enrichment of interactor (log2)” value is 7.56 with HTATSF1, O43719; 4.51 with IWS1, Q96ST2; 5.42 in the assay with KPNA1, P52294; 4.49 with KRI1, Q8N9T8; 6.05 with LARP1, Q6PKG0; 6.3 with LETMD1, Q6P1Q0. Besides, the “PRISMA enrichment of interactor (log2)” value in the assay with MAGEB2, O15479 was 5.68; with MOV10, Q9HCE1 it was 5.74; in the assay with NAT10, Q9H0A0, 6.02; with NOC2L, Q9Y3T9 it was 4.88; in the assay with NOLC1, Q14978, 4.88; with NOP2, P46087, 5.38. In addition, the “PRISMA enrichment of interactor (log2)” value with NTMT1, Q9BV86 turned out to be 5.07; with PAF1, Q8N7H5, 7.35; with PELP1, Q8IZL8, 5.21; in the assay with PPM1G, O15355, 5.81; with RBM28, Q9NW13, 5.13; with RBM34, P42696, 4.87. For the same molecule, the “PRISMA enrichment of interactor (log2)” value with RSL1D1, O76021 came to 5.12; with SDC2, P34741, 4.98; with SET, Q01105, 6.67; with SH3GL1, Q99961 it was 4.99; in the assay with SMAP, O00193 it was 5.14; in the assay with SRP19, P09132, 4.59. Moreover, the “PRISMA enrichment of interactor (log2)” value came out at 5.21 in the assay with SRSF7, Q16629; 5.26 in the assay with STAU1, O95793; 7.47 in the assay with UBTF, P17480; 4.83 in the assay with ZC3H18, Q86VM9; 6.85 in the assay with ZRANB2, O95218.

These data come from the supplement of paper PMC10032668.
